Publication PMC8081163
These are yes or no findings as the source states them, for the method shown. Binding seen in cells or lysates may run through a third protein. Some results given as binding are weak or reduced against the parent protein; the word gives no strength.

The chains behind the UniProt entries cited, without tags or fusion partners. Where a name states a change or a piece, a line headed by the entry shows the natural chain unless it says otherwise.
UniProt Q61656: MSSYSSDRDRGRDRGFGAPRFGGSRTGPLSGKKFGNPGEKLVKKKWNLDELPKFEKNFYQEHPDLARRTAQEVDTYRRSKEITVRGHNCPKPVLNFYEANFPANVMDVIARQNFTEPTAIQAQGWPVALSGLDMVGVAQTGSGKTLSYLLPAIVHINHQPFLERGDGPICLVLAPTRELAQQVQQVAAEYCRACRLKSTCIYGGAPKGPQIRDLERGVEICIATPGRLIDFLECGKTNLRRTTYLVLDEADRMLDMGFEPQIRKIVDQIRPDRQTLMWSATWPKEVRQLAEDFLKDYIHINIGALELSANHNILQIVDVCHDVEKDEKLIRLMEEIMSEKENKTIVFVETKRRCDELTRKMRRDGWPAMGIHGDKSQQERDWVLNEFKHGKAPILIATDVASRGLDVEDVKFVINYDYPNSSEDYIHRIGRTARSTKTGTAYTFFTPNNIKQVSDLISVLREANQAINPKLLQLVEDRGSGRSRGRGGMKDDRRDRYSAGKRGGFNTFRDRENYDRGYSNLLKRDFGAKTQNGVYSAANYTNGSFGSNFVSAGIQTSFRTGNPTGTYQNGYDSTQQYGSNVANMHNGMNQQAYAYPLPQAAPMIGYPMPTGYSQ
UniProt Q8C3P7: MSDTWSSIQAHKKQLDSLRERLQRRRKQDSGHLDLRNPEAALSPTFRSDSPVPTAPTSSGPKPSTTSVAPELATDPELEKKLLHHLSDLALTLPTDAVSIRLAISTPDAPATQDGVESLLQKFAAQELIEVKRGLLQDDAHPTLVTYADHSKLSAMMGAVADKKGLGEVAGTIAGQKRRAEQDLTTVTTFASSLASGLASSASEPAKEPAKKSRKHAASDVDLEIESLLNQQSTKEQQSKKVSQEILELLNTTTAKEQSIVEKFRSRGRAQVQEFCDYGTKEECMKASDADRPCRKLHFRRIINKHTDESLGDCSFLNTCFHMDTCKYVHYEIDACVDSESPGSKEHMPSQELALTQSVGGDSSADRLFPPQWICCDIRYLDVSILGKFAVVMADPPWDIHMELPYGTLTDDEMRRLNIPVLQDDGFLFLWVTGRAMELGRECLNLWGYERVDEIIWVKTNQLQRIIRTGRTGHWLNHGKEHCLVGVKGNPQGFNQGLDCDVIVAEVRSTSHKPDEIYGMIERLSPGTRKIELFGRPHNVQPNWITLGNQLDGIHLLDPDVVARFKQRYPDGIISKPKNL

What was measured:
[1] = target: DDX5 (endogenous, mouse cells) (mouse (endogenous in MEFs NIH/3T3 and macrophages J774A.1)) (UniProt Q61656); test: co-IP
[2] = target: METTL3 (endogenous, mouse cells) (mouse (endogenous in MEFs NIH/3T3 and macrophages J774A.1)) (UniProt Q8C3P7); test: co-IP; endogenous METTL3 and METTL14 in MEFs transfected with doses of DDX5 siRNA or EGF-DDX5 plasmid, then VSV (MOI = 10) for 8 h; NP40 lysis; IP with rabbit METTL3 antibody or IgG; western blot

“METTL3 (endogenous, mouse cells) (from UniProt Q8C3P7 1-580)” was tested, and the binding [1] was “binds”.

B1: METTL14 (endogenous, MEFs) (protein, UniProt Q3UIK4 1-456)
chain: MDSRLQEIRERQKLRRQLLAQQLGAESADSIGAVLNSKDEQREIAETRETCRASYDTSAPNSKRKCLDEGETDEDKVEEYKDELEMQQEEENLPYEEEIYKDSSTFLKGTQSLNPHNDYCQHFVDTGHRPQNFIRDVGLADRFEEYPKLRELIRLKDELIAKSNTPPMYLQADIEAFDIRELTPKFDVILLEPPLEEYYRETGITANEKCWTWDDIMKLEIDEIAAPRSFIFLWCGSGEGLDLGRVCLRKWGYRRCEDICWIKTNKNNPGKTKTLDPKAVFQRTKEHCLMGIKGTVKRSTDGDFIHANVDIDLIITEEPEIGNIEKPVEIFHIIEHFCLGRRRLHLFGRDSTIRPGWLTVGPTLTNSNYNAETYASYFSAPNSYLTGCTEEIERLRPKSPPPKSKSDRGGGAPRGGGRGGTSAGRGRERNRSNFRGERGGFRGGRGGTHRGGFTPR
In the case of B1, the binding [2] is reported as “binds”.
